# Experimental data reported in patent EP0567613B1, “COMPOSITIONS FOR THERAPY AND PREVENTION OF CANCER” (The Government of the United States of America, as …, priority 1991, dated 1993).
# At least one compound was matched to its structure with a doubt left.
# Key:
# [1] = tested on: Leukemia K562; experiment: Tumor cell growth / proliferation; conditions: compared with NaPA
# [2] = tested on: Erythroleukemia K562 cells; experiment: Induction of hemoglobin synthesis (benzidine staining, protein quantitation); conditions: compared with NaPA
smiles,measurement,setting,value
O=C(O)Cc1ccc(O)cc1 [4 hydroxyphenylacetate],inhibition of cell proliferation,[1],less inhibitory to cell proliferation
same,fetal hemoglobin accumulation,[2],as effective as NaPA in inducing fetal hemoglobin accumulation
